Laboratory results: paper PMC12288872
These are yes or no findings as the source states them, for the method shown. Binding seen in cells or lysates may run through a third protein. A result given as binding can be weak or reduced; the word gives no strength.

By UniProt entry, the sequences of proteins in these tests, tags left out. Where a name states a change or a piece, a line headed by the entry shows the natural chain unless it says otherwise.
UniProt P37231: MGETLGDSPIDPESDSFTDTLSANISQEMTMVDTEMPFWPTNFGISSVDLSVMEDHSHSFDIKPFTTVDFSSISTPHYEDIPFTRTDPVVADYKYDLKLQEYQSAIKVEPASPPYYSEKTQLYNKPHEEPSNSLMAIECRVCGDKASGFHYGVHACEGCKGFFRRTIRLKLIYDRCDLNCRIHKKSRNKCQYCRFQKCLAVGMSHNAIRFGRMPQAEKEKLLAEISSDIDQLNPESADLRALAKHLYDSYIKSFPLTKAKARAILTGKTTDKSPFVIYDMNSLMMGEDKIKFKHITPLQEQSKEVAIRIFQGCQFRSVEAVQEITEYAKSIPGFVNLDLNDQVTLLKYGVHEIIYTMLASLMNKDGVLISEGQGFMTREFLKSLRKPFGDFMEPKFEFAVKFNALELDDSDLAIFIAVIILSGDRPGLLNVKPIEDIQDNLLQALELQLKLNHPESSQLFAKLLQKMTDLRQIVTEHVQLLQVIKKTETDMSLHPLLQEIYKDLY
UniProt P56178: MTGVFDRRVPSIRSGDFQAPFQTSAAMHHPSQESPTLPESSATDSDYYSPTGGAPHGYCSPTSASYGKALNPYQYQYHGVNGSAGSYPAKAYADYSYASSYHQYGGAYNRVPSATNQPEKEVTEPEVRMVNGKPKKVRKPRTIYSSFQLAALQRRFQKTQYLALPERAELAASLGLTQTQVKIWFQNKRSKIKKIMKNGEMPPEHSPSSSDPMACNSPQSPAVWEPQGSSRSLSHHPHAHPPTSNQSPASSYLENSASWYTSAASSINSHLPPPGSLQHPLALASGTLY
UniProt Q09472: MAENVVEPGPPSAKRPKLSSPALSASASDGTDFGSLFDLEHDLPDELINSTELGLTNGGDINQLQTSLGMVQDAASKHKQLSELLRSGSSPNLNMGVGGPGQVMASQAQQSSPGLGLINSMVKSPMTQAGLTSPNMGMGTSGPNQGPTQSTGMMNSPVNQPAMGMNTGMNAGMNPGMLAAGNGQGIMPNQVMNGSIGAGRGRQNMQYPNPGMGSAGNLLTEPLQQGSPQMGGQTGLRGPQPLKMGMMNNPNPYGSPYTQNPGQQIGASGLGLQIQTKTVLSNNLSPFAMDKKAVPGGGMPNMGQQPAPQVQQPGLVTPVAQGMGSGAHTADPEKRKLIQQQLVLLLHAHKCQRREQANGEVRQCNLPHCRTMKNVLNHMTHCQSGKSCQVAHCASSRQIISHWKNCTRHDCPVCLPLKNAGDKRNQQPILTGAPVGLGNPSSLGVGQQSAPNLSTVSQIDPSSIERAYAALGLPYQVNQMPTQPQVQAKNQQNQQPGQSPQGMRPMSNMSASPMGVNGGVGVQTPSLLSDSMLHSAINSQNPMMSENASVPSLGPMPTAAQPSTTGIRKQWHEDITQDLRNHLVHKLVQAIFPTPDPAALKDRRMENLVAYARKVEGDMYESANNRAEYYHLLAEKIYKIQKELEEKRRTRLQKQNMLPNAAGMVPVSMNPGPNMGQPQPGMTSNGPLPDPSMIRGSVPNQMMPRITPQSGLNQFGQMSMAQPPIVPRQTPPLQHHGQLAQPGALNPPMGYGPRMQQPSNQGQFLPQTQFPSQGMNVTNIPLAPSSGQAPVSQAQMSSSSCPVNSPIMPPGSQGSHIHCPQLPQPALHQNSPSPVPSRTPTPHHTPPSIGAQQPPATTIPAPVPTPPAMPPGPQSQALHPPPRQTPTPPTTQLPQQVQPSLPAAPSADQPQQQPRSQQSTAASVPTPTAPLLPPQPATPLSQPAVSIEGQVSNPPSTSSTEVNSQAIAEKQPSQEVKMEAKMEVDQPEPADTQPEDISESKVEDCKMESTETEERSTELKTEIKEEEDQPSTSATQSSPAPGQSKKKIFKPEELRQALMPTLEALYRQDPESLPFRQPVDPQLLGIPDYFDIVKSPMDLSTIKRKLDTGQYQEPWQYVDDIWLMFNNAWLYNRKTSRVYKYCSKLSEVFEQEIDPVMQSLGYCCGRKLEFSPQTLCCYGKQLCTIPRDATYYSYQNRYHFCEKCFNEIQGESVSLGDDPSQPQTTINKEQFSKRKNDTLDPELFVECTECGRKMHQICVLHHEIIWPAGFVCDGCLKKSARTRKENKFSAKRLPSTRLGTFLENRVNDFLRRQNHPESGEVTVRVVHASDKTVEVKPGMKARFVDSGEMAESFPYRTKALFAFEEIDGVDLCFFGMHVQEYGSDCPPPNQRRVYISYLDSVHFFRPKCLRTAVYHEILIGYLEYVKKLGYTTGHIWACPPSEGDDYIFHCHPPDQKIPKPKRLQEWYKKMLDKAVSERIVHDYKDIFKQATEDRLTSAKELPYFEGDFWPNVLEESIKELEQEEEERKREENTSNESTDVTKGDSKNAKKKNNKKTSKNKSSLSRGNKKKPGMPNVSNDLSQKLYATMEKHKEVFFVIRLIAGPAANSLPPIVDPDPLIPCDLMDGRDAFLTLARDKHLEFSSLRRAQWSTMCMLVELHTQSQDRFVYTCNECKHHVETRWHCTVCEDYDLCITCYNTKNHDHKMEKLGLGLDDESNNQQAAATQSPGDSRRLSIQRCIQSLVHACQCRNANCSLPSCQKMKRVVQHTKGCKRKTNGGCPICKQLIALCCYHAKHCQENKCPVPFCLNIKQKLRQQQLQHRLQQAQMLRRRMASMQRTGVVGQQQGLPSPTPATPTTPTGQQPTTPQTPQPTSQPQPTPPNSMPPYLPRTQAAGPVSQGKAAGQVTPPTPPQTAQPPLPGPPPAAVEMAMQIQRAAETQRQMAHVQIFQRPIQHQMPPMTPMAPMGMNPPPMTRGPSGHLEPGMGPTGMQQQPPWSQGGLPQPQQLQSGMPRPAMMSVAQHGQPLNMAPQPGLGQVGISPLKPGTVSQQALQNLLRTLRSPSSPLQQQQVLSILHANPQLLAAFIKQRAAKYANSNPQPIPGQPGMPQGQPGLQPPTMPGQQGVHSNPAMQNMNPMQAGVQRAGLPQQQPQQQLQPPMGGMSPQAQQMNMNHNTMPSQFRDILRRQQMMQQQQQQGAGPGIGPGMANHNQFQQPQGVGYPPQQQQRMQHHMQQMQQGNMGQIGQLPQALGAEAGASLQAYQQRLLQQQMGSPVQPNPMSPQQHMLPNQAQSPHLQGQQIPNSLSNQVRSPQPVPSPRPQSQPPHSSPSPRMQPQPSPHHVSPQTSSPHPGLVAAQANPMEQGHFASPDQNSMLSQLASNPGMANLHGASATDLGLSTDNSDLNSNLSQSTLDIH
UniProt Q96RN5: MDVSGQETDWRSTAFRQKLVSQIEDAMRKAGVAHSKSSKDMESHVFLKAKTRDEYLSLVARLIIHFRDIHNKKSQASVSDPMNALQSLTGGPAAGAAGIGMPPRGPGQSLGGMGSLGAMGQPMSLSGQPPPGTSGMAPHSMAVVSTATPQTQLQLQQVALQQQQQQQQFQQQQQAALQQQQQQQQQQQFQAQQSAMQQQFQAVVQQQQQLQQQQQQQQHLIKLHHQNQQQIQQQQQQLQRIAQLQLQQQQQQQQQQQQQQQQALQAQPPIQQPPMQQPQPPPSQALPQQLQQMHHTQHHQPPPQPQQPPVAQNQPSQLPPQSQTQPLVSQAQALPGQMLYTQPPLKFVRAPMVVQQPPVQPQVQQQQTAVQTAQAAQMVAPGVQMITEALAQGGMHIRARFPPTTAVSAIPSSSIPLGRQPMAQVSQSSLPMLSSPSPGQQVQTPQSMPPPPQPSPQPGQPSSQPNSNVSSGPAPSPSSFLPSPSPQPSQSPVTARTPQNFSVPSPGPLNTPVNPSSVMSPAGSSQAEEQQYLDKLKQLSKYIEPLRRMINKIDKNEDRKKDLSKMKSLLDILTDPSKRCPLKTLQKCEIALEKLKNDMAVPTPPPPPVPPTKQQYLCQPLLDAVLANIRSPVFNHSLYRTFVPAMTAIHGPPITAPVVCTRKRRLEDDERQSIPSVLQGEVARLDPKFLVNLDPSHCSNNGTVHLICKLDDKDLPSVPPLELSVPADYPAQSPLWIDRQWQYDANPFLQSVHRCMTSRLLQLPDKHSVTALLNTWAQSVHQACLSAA
UniProt P35548: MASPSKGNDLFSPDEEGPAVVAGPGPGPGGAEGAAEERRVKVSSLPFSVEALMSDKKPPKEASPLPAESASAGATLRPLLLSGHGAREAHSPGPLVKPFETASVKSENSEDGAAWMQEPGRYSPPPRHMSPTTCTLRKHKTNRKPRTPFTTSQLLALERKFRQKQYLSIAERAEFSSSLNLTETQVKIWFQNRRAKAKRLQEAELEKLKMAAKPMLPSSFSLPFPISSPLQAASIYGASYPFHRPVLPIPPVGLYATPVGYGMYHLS

Tests used:
[1] = molecular target: Peroxisome proliferator-activated receptor gamma (human (endogenous in CT27 TSCs and EVTs derived from them)) (UniProt P37231); experiment: co-IP; EVTs (day not stated); endogenous PPARG precipitated with PPARG antibody on Dynabeads Protein A, overnight at 4°C, Pierce IP Lysis Buffer; beads without antibody as control; western blot
[2] = molecular target: Peroxisome proliferator-activated receptor gamma (human (endogenous in CT27 TSCs and EVTs derived from them)) (UniProt P37231); experiment: co-IP; EVT day 3 cells; endogenous PPARG precipitated with PPARG antibody on Dynabeads Protein A, overnight at 4°C, Pierce IP Lysis Buffer; beads without antibody as control; western blot
[3] = molecular target: Peroxisome proliferator-activated receptor gamma (human (endogenous in CT27 TSCs and EVTs derived from them)) (UniProt P37231); experiment: co-IP; TSCs at ~80% confluency; endogenous PPARG precipitated with PPARG antibody on Dynabeads Protein A, overnight at 4°C, Pierce IP Lysis Buffer; beads without antibody as control; western blot

Substance | binding [2] | also measured
DLX5 (from UniProt P56178 1-289) | – | binding [1]: binds
EP300 (from UniProt Q09472 1-2414) | binds | –
MED15 (from UniProt Q96RN5 1-788) | binds | –
MSX2 (from UniProt P35548 1-267) | – | binding [3]: binds
